Source: patent US8765447B2, “Fungal strain Beauveria sp. MTCC 5184 and a process for the preparation of enzymes therefrom” (Council of Scientific and Industrial Research, priority 2010, dated 2014)
Some results were stated once for a whole list of compounds, not compound by compound. For part of these data: At least one compound was matched to its structure with a doubt left.

Tests used:
[1] = tested on: purified protease of Beauveria sp MTCC 5184; experiment: Stability of purified protease in organic solvents at 28° C.; type: biochemical; details: after 24 h, 25% (v/v) solvent, pH 7
[2] = tested on: protease of Beauveria sp MTCC 5184; experiment: Effect of metal ions on protease activity; type: biochemical; details: 10 mM
Procedure: The protease activity has been expressed in terms of tyrosine equivalents. The reaction mixture contained an aliquot of suitably diluted enzyme solution and 10 mg Hammerstein casein in 0.1 M sodium carbonate buffer pH 9.0 in a total volume of 2 ml. After incubation at 50° C. for 10 min, the reaction was terminated by the addition of 3 ml of 5% trichloroacetic acid (acidified with concentrated hydrochloric acid). The precipitate formed was filtered through Whatman No. 1 filter paper after standing for 30 min at room temperature. The absorbance of trichloroacetic acid soluble fraction was measured at 280 nm. Micrograms of tyrosine produced was calculated from a pre-calibrated graph of absorbance at 280 nm against tyrosine concentration and the units are expressed as […] of tyrosine released per minute under assay conditions.
This example illustrates the effect of metal ions on protease activity of Beauveria sp MTCC 5184.

Row | SMILES | residual activity [1] | inhibition [2]
1 | CO [Methanol, methanol] | more than 80% | –
2 | [Cd+2] [Cd^+2] | – | < 40%
3 | CC(C)=O [Acetone, acetone] | less than 30% | –
